# Measured values reported in PubChem BioAssay AID504327 (National Center for Advancing Translational Sciences (NCATS), 2011).
# Sequences of proteins named here, by UniProt entry; tags and fusion partners are left off.
# UniProt Q92830, whole entry, looked up: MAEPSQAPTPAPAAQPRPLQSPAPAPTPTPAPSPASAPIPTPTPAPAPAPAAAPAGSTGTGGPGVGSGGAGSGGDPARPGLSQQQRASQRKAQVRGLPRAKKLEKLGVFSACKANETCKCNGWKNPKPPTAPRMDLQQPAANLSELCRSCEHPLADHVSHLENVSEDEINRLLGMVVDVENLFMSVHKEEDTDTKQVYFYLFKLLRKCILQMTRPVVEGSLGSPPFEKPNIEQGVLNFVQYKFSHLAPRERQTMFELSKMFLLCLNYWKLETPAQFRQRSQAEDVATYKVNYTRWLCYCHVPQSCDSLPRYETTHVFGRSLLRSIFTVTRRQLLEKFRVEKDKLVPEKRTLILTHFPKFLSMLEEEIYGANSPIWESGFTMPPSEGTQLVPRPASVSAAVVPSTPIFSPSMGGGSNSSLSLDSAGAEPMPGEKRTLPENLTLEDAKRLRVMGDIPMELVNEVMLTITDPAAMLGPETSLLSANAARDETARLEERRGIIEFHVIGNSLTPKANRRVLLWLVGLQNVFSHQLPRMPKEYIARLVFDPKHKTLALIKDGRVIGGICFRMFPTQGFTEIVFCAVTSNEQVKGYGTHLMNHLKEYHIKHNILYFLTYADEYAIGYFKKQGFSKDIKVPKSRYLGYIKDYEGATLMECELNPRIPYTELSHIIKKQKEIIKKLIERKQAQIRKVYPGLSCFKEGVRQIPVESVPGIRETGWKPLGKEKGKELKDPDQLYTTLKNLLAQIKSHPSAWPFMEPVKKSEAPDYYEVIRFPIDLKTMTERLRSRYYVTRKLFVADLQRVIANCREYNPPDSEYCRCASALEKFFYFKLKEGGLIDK
# Screen size: about 390,000 compounds; about 820 (0.21%) were called active. The inconclusive results got no clear call from the source; some entries with a clear call stand among them for comparison. Calls come from the whole dose curve; as a rule, active = well fitted inhibition curve with a large enough effect; inconclusive = small, poorly fitted or top-dose-only effect, or another doubt; inactive = no such curve, though single readings can be large or run the other way. Where the call is inconclusive, the potency comes from a doubtful curve fit.
# Biological target: Histone acetyltransferase KAT2A (Homo sapiens) (UniProt Q92830)
# Assay: qHTS Assay for Inhibitors of GCN5L2
# Details: GCN5L2 HAT assay, ThioGlo1 CoA-SH fluorescence; activity change, negative = inhibition: at 58.9 µM (top of the series) unless noted
# Outline: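 Free CoA generated was detected with ThioGlo1 (50uM) fluorescence at Ex340nm/Em540nm, read immediately and after 20 min at room temperature. Enzyme, 20 nM in HEPES pH 7.5 buffer, saw compounds 15 min before adding 75uM H3(1-25) peptide and 70uM acetyl-CoA.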
# % is set by controls: 0 for no effect and ±100 for the full control effect; potency is the fitted concentration of half-maximal effect.
SMILES,Potency,"activity change, negative = inhibition"
C=CCn1c(N)c(C(=O)NCCC2=CCCCC2)sc1=S,"inconclusive: 0.631 µM [inhibitor, full curve, poor fit]",
COc1ccc(-c2nc(=S)[nH][nH]2)cc1,"inconclusive: 35.5 µM [inhibitor, single point]",
COc1cccc(Cn2c(=O)c(-c3cccs3)nc3cnc(OC)nc32)c1,"inconclusive: 31.6 µM [inhibitor, partial curve]",
O=C1C(=Cc2ccco2)C(=O)c2ccccc21,,inactive: -4.21%
CC(=O)c1ccc2c(c1)C1C=CCC1C(C(=O)O)N2 (stereo unspecified),"inconclusive: 11.2 µM [inhibitor, partial curve]",
COc1ccc(C(=O)N/C(=C/c2cccnc2)C(=O)N2CCN(C)CC2)cc1OC,"inconclusive: 39.8 µM [inhibitor, single point]",
CN(CC(=O)Nc1ccccc1Br)C(=O)c1ccncc1,"inconclusive: 0.708 µM [inhibitor, single point]",
CCOC(=O)c1cccc(NC(=O)CC2C(=O)N(c3ccccc3)C(=O)N2Cc2ccco2)c1 (stereo unspecified),"inconclusive: 0.891 µM [inhibitor, single point]",
COc1cccc(/C=N/Nc2nc3ccccc3[nH]2)c1O,,inactive: -11.6%
COc1ccc(-c2cc(C(F)(F)F)n3nc(C(=O)OC(C)C)cc3n2)cc1,"inconclusive: 31.6 µM [inhibitor, single point]",
CN1CCN(c2nc(-c3cccs3)cc(C(F)(F)F)n2)CC1,"inconclusive: 39.8 µM [inhibitor, single point]",
COCCC(=O)N1CCC(Oc2ccc(C(=O)N(C)C3CCCCC3)cc2)CC1,,inactive: -5.63%
COc1ccc(CNC(=O)CN(C)S(=O)(=O)c2ccccc2)cc1,,inactive: -1.09%
O=C(CSc1nc2ccccc2o1)N1N=C(c2cccs2)CC1c1ccc(F)cc1 (stereo unspecified),,inactive: -6.86%
CN(C)CCCN1c2ccccc2Sc2ccc(Cl)cc21,"inconclusive: 39.8 µM [inhibitor, single point]",
Cc1cccc(C(=O)Nc2nnc(S(=O)(=O)N3CCC(C)CC3)s2)c1,"inconclusive: 0.178 µM [inhibitor, full curve]",
Cc1ccc(OCC(=O)Nc2ccc(CN3CCOCC3)cc2)cc1,"inconclusive: 1 µM [inhibitor, full curve, poor fit]",
NS(=O)(=O)c1ccc(CCNS(=O)(=O)c2ccc(Cl)nc2)cc1,,inactive: 4.3%
COC(=O)c1ccc(C)c(NS(=O)(=O)c2cn(C)nc2C)c1,"inconclusive: 3.55 µM [inhibitor, partial curve, poor fit]",
Cc1ccc(OCCCC(=O)Nc2nnc(C3CCCO3)s2)c(C)c1 (stereo unspecified),"inconclusive: 2.82 µM [inhibitor, single point]",
COc1ccc(N/N=C(\C#N)C(N)=O)cc1,,inactive: -10.3%
O=C(Nc1cc(S(=O)(=O)N2CCOCC2)ccc1N1CCOCC1)c1ccc([N+](=O)[O-])s1,,inactive: -3.11%
Cc1ccc(S(=O)(=O)N(C)C)cc1NC(=O)C1CCN(C(=O)Nc2ccccc2)CC1,"inconclusive: 0.141 µM [inhibitor, full curve, poor fit]",

# An excerpt of these results, bar-delimited.
SMILES | Potency | activity change, negative = inhibition
COc1ccc(-c2nc(=S)[nH][nH]2)cc1 | inconclusive: 35.5 µM [inhibitor, single point] | 
Cc1cccc(C(=O)Nc2nnc(S(=O)(=O)N3CCC(C)CC3)s2)c1 | inconclusive: 0.178 µM [inhibitor, full curve] | 

# (listing goes on)

SMILES,Potency,"activity change, negative = inhibition"
Cc1ccc2nc(-c3ccccc3O)c(Nc3ccc4c(c3)OCCO4)n2c1,"inconclusive: 28.2 µM [inhibitor, single point]",
Cc1ccccc1-c1nc2cc(Cl)ccc2c(=O)o1,"inconclusive: 2.82 µM [inhibitor, partial curve]",
CN1CCN(c2oc(-c3ccccc3F)nc2S(=O)(=O)c2ccc(Cl)cc2)CC1,"inconclusive: 0.112 µM [inhibitor, full curve, poor fit]",
CCOc1cc(C2C(C(=O)c3ccc(C)o3)=C(O)C(=O)N2CCc2ccccc2)ccc1O (stereo unspecified),"inconclusive: 39.8 µM [inhibitor, partial curve]",
CSCC[C@H](NC(=O)Cc1c(C)c2c(cc(C)c3c(C)coc32)oc1=O)C(=O)O,"inconclusive: 39.8 µM [inhibitor, single point]",
CCOc1c(Br)cc(C(N)=O)cc1OCc1ccccc1,,inactive: -12.7%
CNC(=O)NC(=O)C(C)OC(=O)c1c2c(nc3ccccc13)/C(=C/c1cccs1)CC2 (stereo unspecified),active: 14.1 µM,
COc1ccccc1NC(=S)NNC(=O)c1nn(C)c(C)c1Br,,inactive: -0.427%
COc1ccc(-c2nnc(SCC(=O)NCC3CCCO3)o2)cc1 (stereo unspecified),"inconclusive: 39.8 µM [inhibitor, single point]",
COc1c(C)cc(C(=O)C2CCCN(S(=O)(=O)c3c(C)noc3C)C2)cc1C (stereo unspecified),"inconclusive: 39.8 µM [inhibitor, single point]",
C=CCn1c(N)c(S(=O)(=O)c2cccs2)c2nc3ccccc3nc21,"inconclusive: 39.8 µM [inhibitor, single point]",
CCOc1c(Cl)cc(C(=O)Nc2ccccc2-c2ccccc2)cc1Cl,,inactive: -4.73%
CCN1CCc2c(sc(NC(=S)NC(=O)c3ccccc3)c2C#N)C1,"inconclusive: 5.62 µM [inhibitor, single point]",
O=C(/C=C/c1cccc(Cl)c1)c1ccc([N+](=O)[O-])o1,"inconclusive: 4.47 µM [inhibitor, full curve, poor fit]",
Nc1c(NCCN2CCCCC2)c2ccccc2oc1=O,"inconclusive: 14.1 µM [inhibitor, partial curve, poor fit]",
C=CCn1nnnc1-c1cccc(Cl)c1,,inactive: -0.371%
CC(=O)N1c2ccc(S(=O)(=O)N3CCCC3)cc2CC1C(=O)NCc1ccccc1F (stereo unspecified),"inconclusive: 39.8 µM [inhibitor, single point]",
CC(=O)c1ccccc1C(=O)N1CCCC(CNC(=O)c2ccccc2Cl)C1 (stereo unspecified),,inactive: -3.1%
NC(=O)c1ccc(Cl)c2ccccc12,,inactive: -23.7%
COc1ccc(NC(=O)c2c3c(nc4ccccc24)CCC3)cc1S(=O)(=O)N1CCOCC1,"inconclusive: 22.4 µM [inhibitor, partial curve]",
O=C(CCCN1C(=O)/C(=C/c2cccs2)SC1=S)NNC(=O)c1cccnc1,"inconclusive: 3.16 µM [inhibitor, partial curve]",
Brc1ccc(CN2C3=NCCCN3c3ccccc32)cc1,,inactive: -0.157%
COc1ccc(-c2csc(NC(=O)C3CSC4(C)CCC(=O)N34)n2)c(OC)c1 (stereo unspecified),,inactive: -24.6%
